About 170 (0.05%) of roughly 340,000 compounds were called active. The inconclusive results got no clear call from the source; some entries with a clear call stand among them for comparison. The call rests on the fitted dose curve; in most records, active means well fitted inhibition curve with a large enough effect in the signal ratio, with a control signal flat (not every such curve was filed as active); inconclusive means small, poorly fitted or top-dose-only effect, or effect the other way, or a change in a side signal; inactive means flat fitted curve, though single readings scatter; the % refers to the signal ratio. Potencies beside an inconclusive call are fits to weak or partial responses and may not hold up.
Assay: qHTS Assay to Find Inhibitors of Chronic Active B-Cell Receptor Signaling;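 on activity change, negative = inhibition: plate controls were basal doxycycline-induced cells for no effect and cells given 10 µM MG132 for full effect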
Conditions: ABC-DLBCL IkBa-CBG/CBR reporter, luminescence ratio (green luciferase fused to IkBa over red control in TMD8 lymphoma cells), 4 h; activity change, negative = inhibition: at 46.1 µM (top of the series)
Method in brief: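 Cell line TMD8 (human ABC DLBCL), stably expressing tet-inducible CBG68-IkBa fusion and CBR; IMDM/0.5% FBS; cpd up to 46 uM; dox induction, 4 h, 37C/5% CO2; dual luminescence; green/red ratio; MG132 control.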
Potency means the concentration at half of the fitted maximal effect.

| SMILES | activity change, negative = inhibition | Potency |
| --- | --- | --- |
| CC(C)C[C@@H](CN(C)N=O)N(C[C@H](Cc1ccccc1)N(CCc1ccccc1)N=O)N=O | inactive: 10.6% |  |
| Cc1cccc(N(Cc2ccccc2)C(=O)CCl)c1 |  | inconclusive: 22.4 µM [falling, partial curve, poor fit] |
| O=C(Cc1ccccc1)N1CCN(C(=O)c2ccco2)CC1 | inconclusive: 10.5% |  |
| CC(=O)c1ccc(NC(=O)CN2CCC(NC(=O)C3CCCCC3)CC2)cc1 | inconclusive: 28.1% |  |
| CCN(CC)c1ccc2c(c1)oc(=O)c1c(Cl)cc(=O)oc12 | inactive: -0.786% |  |
| Cc1ccc(/C=N/Nc2cc(C)nc(N3CCOCC3)n2)cc1 | inconclusive: 6.06% |  |
| CN(c1ccccc1)c1nc(N)c([N+](=O)[O-])c(Nc2ccccc2)n1 | inconclusive: 2.76% |  |
| COc1cc(NC(=O)C/C(C)=N/NC(=O)C2CCCCC2)c(OC)cc1Cl | inconclusive: -5.21% |  |
| O=S(=O)(NCCC1=CCCCC1)c1c(Cl)cccc1Cl |  | inconclusive: 11.6 µM [rising, partial curve, poor fit] |
| CC(NC(=O)c1ccccc1)C(=O)N/N=C/c1cccc([N+](=O)[O-])c1 (configuration not stated) | inconclusive: -7.38% |  |
| CCOC(=O)CNC(=O)C1COc2ccccc2O1 (configuration not stated) | inconclusive: -0.105% |  |
| COC(=O)CCS(=O)(=O)c1cc(Cl)ccc1Cl | inactive: 0.172% |  |
| O=C(COC(=O)C1CC1)Nc1ccc(S(=O)(=O)N2CCOCC2)cc1 | inactive: 2.87% |  |
| CC(=O)C1=C(C)NC(=O)NC1c1ccccc1 (configuration not stated) | inconclusive: 0.195% |  |
| CN(C(=O)c1ccco1)c1nc(-c2ccc(Cl)cc2)cs1 | inconclusive: 17.2% |  |
| CCc1nnc(NC(=O)c2cccc(OC)c2)s1 |  | inconclusive: 29.1 µM [falling, single point] |
| Cc1ccc(-c2cc(-c3nnc(SCC(=O)N(C)CCC#N)n3N)c3ccccc3n2)cc1 | inactive: 4.09% |  |
| COC(=O)c1[nH]c2ccc(Br)cc2c1NC(=O)CN1CCN(C2CCCCC2)CC1 | inconclusive: 4.52% |  |
| Cc1cc(-c2ccccc2)nc(Oc2ccc(C(C)(C)C)cc2)c1S(C)(=O)=O | inconclusive: 12.9% |  |
| Cc1ccc(NC(=O)c2cnn(C)c2)cc1[N+](=O)[O-] | inconclusive: 3.96% |  |
| CCN(CC)S(=O)(=O)c1ccc(S(=O)(=O)N2CCCC2)cc1 | inconclusive: 1.6% |  |
| COc1ccc(CCNC(=O)c2cc(COc3c(C)cccc3C)on2)c(OC)c1 | inconclusive: -1% |  |
| COc1ccc(NC(=O)CN2CCCCC2)c([N+](=O)[O-])c1 | inactive: 2.78% |  |
| CCc1cccc(NC(=O)c2cccc(S(=O)(=O)N3CCN(C)CC3)c2)c1 | inconclusive: -4.33% |  |
| CCO[C@H]1OC(C(=O)NCc2ccccc2)=C[C@@H](c2ccc(C(F)(F)F)cc2)[C@@H]1CCCO | inconclusive: 3.6% |  |
| NC(=O)N/N=C/c1ccc(-c2cccc(C(F)(F)F)c2)o1 | inconclusive: -1.34% |  |

Individual results from the list.
CC(C)C[C@@H](CN(C)N=O)N(C[C@H](Cc1ccccc1)N(CCc1ccccc1)N=O)N=O – activity change, negative = inhibition: inactive: 10.6%
Cc1ccc(-c2cc(-c3nnc(SCC(=O)N(C)CCC#N)n3N)c3ccccc3n2)cc1 – activity change, negative = inhibition: inactive: 4.09%

(listing goes on)

| SMILES | activity change, negative = inhibition | Potency |
| --- | --- | --- |
| COc1ccc(Br)cc1CNC(=O)CCSCc1ccc(C)cc1 | inconclusive: -0.484% |  |
| CCn1c(SCC(=O)N/N=C/C=C/c2ccccc2[N+](=O)[O-])nnc1-c1ccc(Cl)cc1 | inconclusive: -20.8% |  |
| CC(O)[C@H]1CNC(=O)C(=O)N1CCCCC1CCCCC1 (some centres not stated) | inconclusive: -3.05% |  |
| CCC(C)c1ccc(NC(=S)NCc2ccccc2OC)cc1 (configuration not stated) | inconclusive: -9.15% |  |
| Cc1cc(NC(=S)Nc2ccc(C)c(Cl)c2)n[nH]1 | inconclusive: -16.6% |  |
| COc1ccc(-c2cc(=NC(CC(C)C)C(=O)O)c3cc(C)ccc3o2)cc1 (configuration not stated) | inconclusive: 4.1% |  |
| O=C(CSc1nnc(-c2c[nH]c3ccccc23)o1)N1c2ccccc2CCc2ccccc21 | inconclusive: 15.5% |  |
| Cc1ccccc1OCC(=O)Nc1cccc(N(C)S(C)(=O)=O)c1 |  | inconclusive: 20.6 µM [falling, single point] |
| Fc1ccc(-c2ccc(/C=N\n3cnnc3)o2)cc1Cl |  | inconclusive: 14.6 µM [falling, partial curve] |
| O=C(NC1CCCc2c1cnn2-c1ccc(F)cc1F)c1ccccc1N1CCOCC1 (configuration not stated) | inactive: 5.91% |  |
| Cc1ccc(Cl)cc1-n1ncc2c(NCCCc3ccccc3)ncnc21 | inconclusive: -0.395% |  |
| CCCOC(=O)c1c(-c2ccc(OC)cc2)oc2ccc(-c3ccc(OC)nc3)cc12 | inconclusive: 0.141% |  |
| CC(SCc1cc(=O)n2c([nH]c3ccccc32)c1C#N)C(=O)O (configuration not stated) | inconclusive: 15% |  |
| Cc1ccc(/C(=N/Nc2ncnc3ccccc23)C(=O)O)cc1 | inconclusive: -21.6% |  |
| CCCn1c(SCC(=O)Nc2sc(C)c(C)c2C#N)nnc1C(C)C | inconclusive: -9.44% |  |
| CCOc1ccc(NC(=O)CCC(=O)O)cc1 |  | inconclusive: 20.6 µM [falling, partial curve] |
| Brc1ccccc1/C=N/Nc1ccc2ccccc2n1 | inconclusive: 488% |  |
| Cc1cc(NC(=O)c2ccccc2)ncc1NC(=O)c1ccco1 |  | inconclusive: 29.1 µM [falling, single point] |
| Nc1ccc(C(=O)OCc2nc3ccccc3s2)cc1 | inconclusive: -1.4% |  |
| CC(=O)NCCc1nc2ccccc2n1CCOc1ccccc1 | inconclusive: -4.27% |  |
| C[C@@H](C[C@@H](O)[C@H](O)C(C)(C)O)[C@@H]1CC[C@]2(C)C3=CC[C@H]4C(C)(C)C(=O)CC[C@]4(C)[C@H]3CC[C@@]12C | inconclusive: 0.39% |  |
| Cc1ccc(C2(c3ccc(C)cc3)CC2C(=O)Nc2ccc([N+](=O)[O-])cc2O)cc1 (configuration not stated) | inconclusive: 8.05% |  |
| COc1cccc(NC(=O)n2nc(N)cc2-c2ccc(Cl)cc2)c1 |  | inconclusive: 9.2 µM [falling, partial curve, poor fit] |
| Cc1ccc(Cn2c(C)c3cnn(CC(=O)NCc4ccccn4)c(=O)c3c2C)cc1 |  | inconclusive: 11.2 µM [falling, partial curve] |
| Cc1nc2oc3ccccc3c(=O)c2c(=O)n1Cc1ccccc1 | inconclusive: 11.5% |  |
| O=C(C1CC1)N1CCc2cc(Br)cc(S(=O)(=O)N3CCN(c4ccccn4)CC3)c21 | inconclusive: 14.6% |  |

From PubChem BioAssay AID493014 (National Center for Advancing Translational Sciences (NCATS), 2011)
